Results deposited as PubChem BioAssay AID743121 (NCATS, 2013)

Purpose: 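Knock-downs that sensitise breast cancer cells to camptothecin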 (primary screen)
Cell system: MDA-MB-231 cells, a human breast cancer line
Knock-down reagent: single siRNA against human genes, 20 nM siRNA (0.8 pmol per well)
Time to read-out: 120 h (drug added 48 h after transfection, read 72 h later)
Treatment: camptothecin 20 nM (about EC30) for 72 h; vehicle 0.1% DMSO in parallel plates
Measurement: 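Cell viability by ATP luminescence (CellTiter-Glo) as % of non-targeting siRNA wells, and the log2 ratio of viability without drug over viability with camptothecin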
Reading the numbers: log2 vehicle/camptothecin viability: higher = stronger sensitisation to camptothecin; viability with camptothecin and viability without drug: higher = more viable cells
Hit rule: 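Active genes have an RSA gene-level p-value below 0.001, computed from the ratios of their separate siRNAs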
This is a random part of about 26,000 reagents. Over the whole deposit, 167 (0.63%) got an active call. 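Calls are per gene from RSA p-values that are not deposited; an individual active-marked siRNA can sensitise only weakly.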 Unmarked entries are inactive. The numbers tell different reagents against one gene apart.

gene | reagent | log2 vehicle/camptothecin viability | viability with camptothecin (% of control) | viability without drug (% of control)
MAPK9 | 1 | -0.244 | 57.9 | 48.9
MAPK9 | 2 | 0.315 | 66.8 | 83.1
MAPK9 | 3 | -0.335 | 85.7 | 67.9
MAPK9 | 4 | -0.0429 | 87 | 84.4
PCDHB1 | 1 | -0.315 | 58.8 | 47.3
PCDHB1 | 2 | 0.00852 | 70.5 | 70.9
PCDHB1 | 3 | -0.11 | 86.8 | 80.5
PCDHB1 | 4 | -0.0271 | 87 | 85.4
COMP | 1 | -0.408 | 103 | 77.4
COMP | 2 | -0.146 | 67.4 | 60.9
COMP | 3 | -0.015 | 77.2 | 76.4
COMP | 4 | 0.0394 | 94.5 | 97.1
CDKN2D | 1 | -0.32 | 51.3 | 41.1
CDKN2D | 2 | -0.0283 | 110 | 108
CDKN2D | 3 | 0.166 | 73.9 | 82.8
CDKN2D | 4 | 0.78 | 33 | 56.6
ZNF71 | 1 | 0.236 | 66 | 77.7
ZNF71 | 2 | 0.38 | 62.5 | 81.4
ZNF71 | 3 | -0.554 | 133 | 90.5
PDE7A | 1 | -0.468 | 98.1 | 71
PDE7A | 2 | -0.137 | 36.2 | 32.9
PDE7A | 3 | -1.27 | 13.4 | 5.53
PDE7A | 4 | 0.00718 | 92.2 | 92.6
PAQR8 | 1 | 0.115 | 74.9 | 81.1
PAQR8 | 2 | -0.249 | 48.7 | 41
PAQR8 | 3 | -0.106 | 74.3 | 69.1
PAQR8 | 4 | -0.369 | 73.8 | 57.1
RAB31 | 1 | -0.128 | 79.5 | 72.7
RAB31 | 2 | -0.383 | 107 | 81.8
RAB31 | 3 | -0.143 | 99.2 | 89.8
RAB31 | 4 | -0.453 | 40.8 | 29.8
NF2 | 1 | 0.147 | 45.7 | 50.6
NF2 | 2 | -1.17 | 73.2 | 32.6
NF2 | 3 | 0.166 | 30.8 | 34.5
NF2 | 4 | -0.167 | 54 | 48.1
NF2 | 5 | 0.288 | 65.4 | 79.8
NF2 | 6 | -0.0884 | 84.1 | 79.1
FKBP11 | 1 | 0.724 | 54.9 | 90.7
FKBP11 | 2 | -0.0907 | 97.4 | 91.4
FKBP11 | 3 | -0.326 | 117 | 93.2
FKBP11 | 4 | 0.0353 | 96.4 | 98.8
PIM1 | 1 | -0.363 | 63.3 | 49.2
PIM1 | 2 | -0.279 | 111 | 91.5
PIM1 | 3 | -0.415 | 94.1 | 70.6
PIM1 | 4 | -0.559 | 81.2 | 55.1
RBL1 | 1 | 0.791 | 13 | 22.4
RBL1 | 2 | -0.216 | 109 | 93.8
RBL1 | 3 | -0.327 | 74.4 | 59.3
ADAMTS12 | 1 | -0.651 | 107 | 68.4
ADAMTS12 | 2 | 0.431 | 6.91 | 9.31
ADAMTS12 | 3 | 0.234 | 21.7 | 25.6
ADAMTS12 | 4 | -0.0316 | 97.6 | 95.5
KCNAB2 | 1 | 1.38 | 16.7 | 43.4
KCNAB2 | 2 | -0.41 | 122 | 92.1
KCNAB2 | 3 | -0.481 | 81 | 58.1
OPTN | 1 | -0.247 | 92.3 | 77.8
OPTN | 2 | -0.0919 | 110 | 103
OPTN | 3 | 0.0187 | 71.3 | 72.2
OPTN | 4 | 0.0635 | 90.1 | 94.2
PINK1 | 1 | 0.074 | 57.8 | 60.8
PINK1 | 2 | -0.0211 | 85.1 | 83.8
PINK1 | 3 | -0.239 | 79.2 | 67.2
PINK1 | 4 | -0.337 | 87.6 | 69.4
ADRA1B | 1 | -0.379 | 90 | 69.3
ADRA1B | 2 | 0.323 | 55.6 | 69.6
ADRA1B | 3 | -0.128 | 79.7 | 72.9
ADRA1B | 4 | 1.13 | 33.5 | 73.4
LINGO4 | 1 | 0.128 | 47.4 | 51.8
LINGO4 | 2 | -0.0429 | 95.1 | 92.4
LINGO4 | 3 | 0.154 | 63.4 | 70.6
LINGO4 | 4 | -0.0102 | 104 | 103
RAB22A | 1 | -0.0265 | 98.4 | 96.6
RAB22A | 2 | -0.118 | 116 | 107
RAB22A | 3 | -0.478 | 65.2 | 46.8
RAB22A | 4 | -0.363 | 69 | 53.6
CCDC86 | 1 | -0.25 | 58.4 | 49.1
CCDC86 | 2 | -0.545 | 21.1 | 14.5
CCDC86 | 3 | 0.0892 | 31.9 | 33.9
CCDC86 | 4 | 0.142 | 25.8 | 28.4
ZNF335 | 1 | -0.12 | 31.2 | 28.7
ZNF335 | 2 | -0.109 | 74.4 | 69
ZNF335 | 3 | 0.557 | 32.9 | 48.4
ZNF335 | 4 | -0.274 | 111 | 91.8
TIMM50 | 1 | -0.447 | 75.7 | 55.6
TIMM50 | 2 | -0.459 | 55.9 | 40.7
TIMM50 | 3 | -0.29 | 60.4 | 49.4
TIMM50 | 4 | -0.0828 | 80.1 | 75.6
